# Earlier results, collected in US20040028683A1, “Modulators of p85 expression” (Joslin Diabetes Center, Inc., a Massachusetts corporation, priority 2000, published 2004).
# At least one compound was matched to its structure with a doubt left.
# System: cultured cells
# Settings: compounds that inhibit p110 kinase activity
row,Structure (SMILES),insulin-mediated glucose transport
1,O=c1cc(N2CCOCC2)oc2c(-c3ccccc3)cccc12 [Ly294002],block insulin-mediated glucose transport
2,COC[C@H]1OC(=O)c2coc3c2[C@@]1(C)C1=C(C3=O)[C@@H]2CCC(=O)[C@@]2(C)C[C@H]1OC(C)=O [wortmannin],block insulin-mediated glucose transport
